# Data published in paper PMC9071494.
# The chains behind the UniProt entries cited, without tags or fusion partners.
# UniProt P50750: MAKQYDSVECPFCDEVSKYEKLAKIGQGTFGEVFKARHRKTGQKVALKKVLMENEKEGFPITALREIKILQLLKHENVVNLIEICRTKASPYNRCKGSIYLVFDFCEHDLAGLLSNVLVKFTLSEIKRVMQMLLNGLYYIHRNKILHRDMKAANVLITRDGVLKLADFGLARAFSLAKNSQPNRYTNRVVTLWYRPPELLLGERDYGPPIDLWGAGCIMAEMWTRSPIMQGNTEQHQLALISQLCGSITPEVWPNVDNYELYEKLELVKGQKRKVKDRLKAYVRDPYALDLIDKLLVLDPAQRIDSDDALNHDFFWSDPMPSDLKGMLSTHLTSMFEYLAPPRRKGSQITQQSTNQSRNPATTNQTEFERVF
# UniProt Q15648: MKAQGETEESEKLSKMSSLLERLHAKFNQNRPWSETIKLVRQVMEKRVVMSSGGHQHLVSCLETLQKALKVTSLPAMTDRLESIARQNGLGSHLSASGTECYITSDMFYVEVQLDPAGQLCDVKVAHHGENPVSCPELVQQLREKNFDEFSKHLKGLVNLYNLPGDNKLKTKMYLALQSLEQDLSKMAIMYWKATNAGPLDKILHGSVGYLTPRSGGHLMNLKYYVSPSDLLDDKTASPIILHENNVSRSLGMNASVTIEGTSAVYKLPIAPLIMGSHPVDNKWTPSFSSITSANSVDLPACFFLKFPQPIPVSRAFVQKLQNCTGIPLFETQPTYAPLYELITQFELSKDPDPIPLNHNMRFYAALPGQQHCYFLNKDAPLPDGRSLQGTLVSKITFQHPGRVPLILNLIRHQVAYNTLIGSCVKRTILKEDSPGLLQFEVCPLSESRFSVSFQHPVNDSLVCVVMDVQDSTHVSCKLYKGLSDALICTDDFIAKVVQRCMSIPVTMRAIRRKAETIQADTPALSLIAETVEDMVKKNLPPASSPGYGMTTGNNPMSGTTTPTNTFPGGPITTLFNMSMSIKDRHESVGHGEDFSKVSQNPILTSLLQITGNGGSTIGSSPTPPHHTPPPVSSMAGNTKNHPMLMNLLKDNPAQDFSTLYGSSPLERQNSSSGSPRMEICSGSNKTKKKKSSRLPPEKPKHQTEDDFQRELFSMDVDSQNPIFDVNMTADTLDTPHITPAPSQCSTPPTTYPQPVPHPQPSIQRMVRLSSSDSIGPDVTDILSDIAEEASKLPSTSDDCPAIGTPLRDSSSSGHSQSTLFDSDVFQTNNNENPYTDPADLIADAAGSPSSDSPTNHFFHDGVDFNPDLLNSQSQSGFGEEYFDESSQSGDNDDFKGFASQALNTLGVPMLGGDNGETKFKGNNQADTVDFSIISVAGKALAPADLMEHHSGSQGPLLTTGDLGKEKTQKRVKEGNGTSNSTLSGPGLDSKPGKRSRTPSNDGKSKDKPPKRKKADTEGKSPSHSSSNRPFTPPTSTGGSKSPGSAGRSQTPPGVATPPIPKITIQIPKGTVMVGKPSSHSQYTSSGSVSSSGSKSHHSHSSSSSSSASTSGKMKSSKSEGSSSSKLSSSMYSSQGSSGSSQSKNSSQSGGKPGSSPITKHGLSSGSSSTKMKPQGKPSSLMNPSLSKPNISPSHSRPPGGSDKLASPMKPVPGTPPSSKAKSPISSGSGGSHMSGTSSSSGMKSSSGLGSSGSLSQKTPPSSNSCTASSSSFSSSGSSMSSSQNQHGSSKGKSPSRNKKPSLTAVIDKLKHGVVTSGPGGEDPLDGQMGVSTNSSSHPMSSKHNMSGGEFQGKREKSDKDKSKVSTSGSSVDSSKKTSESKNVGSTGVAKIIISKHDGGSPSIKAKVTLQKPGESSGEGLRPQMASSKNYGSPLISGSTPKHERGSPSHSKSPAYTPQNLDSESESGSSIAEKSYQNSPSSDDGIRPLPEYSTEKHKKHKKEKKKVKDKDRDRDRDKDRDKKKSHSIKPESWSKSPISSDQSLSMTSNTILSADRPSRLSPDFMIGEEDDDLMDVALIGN
# No constants are given. Whether binding was seen depends on the method and setting. Binding seen in cells or lysates may run through a third protein. Some entries that bind do so weakly or less than the wild type. For some assays here: Tags and fused reporters may be left off the sequences shown.
# Legend:
# GST–MED31 (human) = target: T1, GST–MED31 (human) (UniProt Q9Y3C7); assay: pull-down; GST fusion protein immobilised on magneGST particles, 5 μl of in vitro translated MED1 or RPB1, 200 μl magneGST binding/washing buffer, 1 h at 4°C, five washes; western blot for MED1 or RPB1; only the target purified
# T1 sequence: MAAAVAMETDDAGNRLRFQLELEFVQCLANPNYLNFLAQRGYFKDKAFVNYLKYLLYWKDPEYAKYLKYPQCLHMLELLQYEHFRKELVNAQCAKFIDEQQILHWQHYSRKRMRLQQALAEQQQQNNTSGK
# [1] = target: cyclin-dependent kinase 9 (human (endogenous in LNCaP-abl)) (UniProt P50750); assay: co-IP; LNCaP-abl nuclear extracts diluted with 25 mM Tris pH 7.4, 0.15 M NaCl, 1 mM EDTA, 1% NP-40, 5% glycerol; CDK9 antibody on protein A beads 2 h at 4°C; washed with 50 mM Tris pH 8.0, 150 mM NaCl, 0.2% NP-40; blot for pMED1 and CDK9
substance,measurement,setting,value
in vitro translated full-length MED1 (from UniProt Q15648 1-1581),binding,GST–MED31 (human),binds
phosphorylated MED1 (MED1 phosphorylated at threonine 1032) (from UniProt Q15648 1-1581),binding,[1],binds
